The record followed here is PubChem BioAssay AID662 (National Center for Advancing Translational Sciences (NCATS), 2007).

SMILES strings stand for the structures. Some of the results follow. Shown are side measurements of this screen, not its main read-out; they come without a call. Compounds called inactive in the main read-out are mostly missing here. The note in brackets gives the kind of curve behind each potency; many fits are weak.

This experiment can be described thus: Cell signaling CRE-BLA (Fsk stim). To be noted: CHO CRE-bla reporter (cAMP response element driving beta-lactamase), forskolin EC10, beta-lactamase ratio; measured here: 460 nm blue channel. In short, it runs like this:
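Titrated compounds plus EC10 NKH 477 on CHO CRE-bla cells, 3 h, 37 °C. CCF4, 2 h RT. Ratio 460/530 nm → AC50.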
Regarding `COc1ncc2nc(CCc3ccccc3)c(=O)n(Cc3cccs3)c2n1`, the AC50 is 15.8 µM [rising, partial curve].
Regarding `CCOC(=O)N1CCN(C(=O)c2cnsn2)CC1`, the AC50 is 0.316 µM [falling, partial curve].
In the case of `Cn1c(SCc2cccnc2)nc2cccnc21`, the AC50 was 10 µM [rising, single point].
The same measure for `COc1cc(C)cc2c(-c3c(O)cc(O)c4c3C[C@H](C)N[C@@H]4C)cc(-c3cc(-c4c(O)cc(O)c5c4C[C@H](C)N[C@@H]5C)c4cc(C)cc(OC)c4c3O)c(O)c12`: 0.000794 µM [falling, full curve, poor fit]; for `Cc1nc(-c2ccccc2)nc2[nH]c(C(C)C)cc(=O)c12`: 12.6 µM [rising, partial curve].
Regarding `O=C(CSc1ccc(Cl)cc1)c1ccco1`, the concentration at half-maximal activity (AC50) is 3.98 µM [falling, partial curve].
With `CCCCCCOC(=O)C(C#N)c1nc2ccccc2nc1N1CCCCC1` (stereo not drawn), the concentration at half-maximal activity (AC50) was 12.6 µM [rising, single point].
The same measure for `CC(C)(C)c1cc(C(=O)N2CCc3ccccc32)ccn1`: 12.6 µM [falling, partial curve]; for `CC(C)C(NS(=O)(=O)c1ccc2c(c1)OCCO2)C(=O)NCCc1ccccn1` (stereo not drawn): 0.0794 µM [falling, full curve, poor fit].
With `Cc1ccc(S(=O)(=O)Nc2nncs2)cc1` the figure was 0.0126 µM [falling, full curve, poor fit]; with `CN(C)c1nc2n(c(=O)n1)CCO2`, 5.01 µM [falling, single point].
Regarding `Cc1n[nH]c(C)c1N1C(=O)c2cccc3c(N4CCCCCC4)ccc(c23)C1=O`, the AC50 was 3.98 µM [rising, partial curve].
With `CC(C)OC(=O)CC(=O)CSc1nc2c(cc1C#N)CCCC2` the figure was 12.6 µM [rising, partial curve]; with `COc1cc(NC2c3ncccc3C(=O)N2Cc2ccco2)cc(OC)c1` (stereo not drawn), 0.0501 µM [rising, partial curve, poor fit]; with `COc1ccccc1-c1nc(NC(C)=O)n[nH]1`, 31.6 µM [falling, partial curve].
The same measure for `CC(C)n1c(SCc2ccc(Cl)cc2)nc2c1c(=O)[nH]c(=O)n2C`: 12.6 µM [rising, partial curve]; for `CNc1nnc(-c2cccc(N(C)C)c2)s1`: 15.8 µM [rising, single point].
Consider `CCc1nc(SCC(=O)Nc2cc(C)on2)c2c(C)c(C)sc2n1`, for which the AC50 is 2.51 µM [rising, full curve].
`CCN(CC)CCNC(=O)C1CCC(=O)N1CCc1ccccc1` (stereo not drawn): the AC50 was 31.6 µM [falling, partial curve].
As to `Nc1c(-c2ccc(Cl)cc2)nnn1-c1ccccc1`, the AC50 was 15.8 µM [rising, partial curve, poor fit].
With `Cc1cc(C)n(-c2nc(SCC(=O)N3CCCC3)c3c4c(sc3n2)CCCC4)n1` the figure was 5.01 µM [falling, single point]; with `COc1ccccc1CNc1ncnc2ccc(-c3ccc(N(C)C)cc3)cc12`, 5.01 µM [rising, full curve]; with `CCOC(=O)Cc1[nH]nc2c1C(C1C=CCCC1)C(C#N)=C(N)O2` (stereo not drawn), 5.01 µM [falling, partial curve].
With `CCCCn1c(SCc2cccnc2)nc2c1c(=O)n(C)c(=O)n2C` the figure was 12.6 µM [rising, partial curve].
The same measure for `N#Cc1cccc(NC(=O)NCCc2c[nH]c3ccccc23)c1`: 10 µM [falling, partial curve].
Consider `COc1ccc(-c2nnc(SC(=O)N3c4ccccc4Sc4ccccc43)o2)cc1`, for which the AC50 was 0.631 µM [falling, full curve, poor fit].
`CC1S/C(=C(\C#N)C(=O)NCc2ccco2)N(c2ccc(F)cc2)C1=O` (stereo not drawn): the AC50 is 1.58 µM [rising, single point].
The same measure for `Cc1cc(NC(c2cccnc2)c2ccc3cccnc3c2O)no1` (stereo not drawn): 3.16 µM [falling, partial curve]; for `CN1CCc2c(sc3c2C(=O)NC(c2cccc(OC(=O)c4cccs4)c2)N3)C1` (stereo not drawn): 10 µM [rising, partial curve].
The same measure for `CCOC(=O)c1c(NC(=O)c2ccco2)sc(C(=O)N2CCCC2)c1C`: 10 µM [rising, partial curve].
As to `CCc1nc(N2CCOCC2)c(C#N)c2c1COC(C)(C)C2`, the concentration at half-maximal activity (AC50) is 12.6 µM [rising, partial curve].
With `CCOC(=O)c1sc2nc(SCC#N)n(CCCN3CCCC3=O)c(=O)c2c1C` the figure was 10 µM [rising, single point]; with `O=C(CCSc1ccccc1)Nc1ccc(S(=O)(=O)N2CCOCC2)cc1`, 12.6 µM [falling, single point]; with `CCN(CC)CCn1cnc2c([nH]c3cccc(OC)c32)c1=O`, 3.16 µM [falling, full curve].
The same measure for `COc1ccc(-c2nc3cnc(Oc4cccc(Cl)c4)nc3n(C3CC3)c2=O)cc1`: 2.51 µM [rising, full curve]; for `CCc1nc(C)cn1S(=O)(=O)c1cc(Br)ccc1OC`: 25.1 µM [rising, single point].
With `Cc1cc(-n2c(=O)c(C#N)cc3c(=O)n4cccc(C)c4nc32)no1` the figure was 3.98 µM [rising, full curve].
Take `CC1CCN(S(=O)(=O)c2ccc3c(c2)c(=O)c(C(=O)NC2CCCC2)cn3C)CC1`: the AC50 is 5.01 µM [falling, partial curve, poor fit].
For the compound `CC(C)C(NS(=O)(=O)c1cccs1)C(=O)N1CCc2ccccc2C1` (stereo not drawn), the AC50 was 10 µM [rising, single point].
With `CCCCn1cnc2c1c(=O)n(C)c(=O)n2C` the figure was 12.6 µM [rising, partial curve]; with `O=C(CN1CCSCC1)N1CCc2[nH]c3ccc(Br)cc3c2C1`, 25.1 µM [rising, single point]; with `N#CC1=C(N)C(C#N)(C#N)[C@H](c2ccoc2)[C@H]2CN(Cc3ccccc3)CC=C12`, 10 µM [rising, partial curve].
The same measure for `CCNc1ncc2nc(-c3cccs3)c(=O)n(Cc3cccs3)c2n1`: 0.794 µM [rising, full curve]; for `COCCNC(=O)c1cn(C)c(=O)c2cc(OC)c(OC)cc12`: 12.6 µM [rising, partial curve]; for `O=c1oc2ccc(Br)cc2cc1-c1nc2ccccc2o1`: 3.98 µM [rising, partial curve].
With `CC1Cc2ccccc2N1C(=O)CSCC(=O)O` (stereo not drawn) the figure was 20 µM [rising, single point].
On to `CC1CCN(CCCNC(=O)c2ccc(CS(=O)(=O)Cc3ccccc3F)o2)CC1`, for which the AC50 is 25.1 µM [rising, single point].
As to `Cc1ccc(-c2nnc(SCC(=O)N3CCCC3)o2)cc1C`, the concentration at half-maximal activity (AC50) is 0.00631 µM [falling, full curve, poor fit].
Take `CCOC(=O)c1c(C)c(C(=O)NCc2cccs2)c(C)n1CC`: the AC50 is 7.94 µM [rising, partial curve].
As for `CCOC(=O)c1c(N)nn(C(=O)C(C)(C)C)c1-c1ccccc1`, the AC50 is 12.6 µM [rising, single point].
Regarding `CCCn1nc(C(=O)NCc2ccccn2)c2ccccc2c1=O`, the AC50 was 25.1 µM [rising, single point].
The same measure for `CN(CC(=O)NCCN1CCN(Cc2ccccc2)CC1)S(=O)(=O)c1cccc2nsnc12`: 3.98 µM [rising, single point].
The same measure for `Cc1ccc2[nH]c(-c3ccccc3)c(CN3CCN(C)CC3)c(=O)c2c1`: 0.398 µM [rising, full curve]; for `NS(=O)(=O)c1ccc(Nc2nc(-c3ccc(O)cc3)cs2)cc1`: 0.00316 µM [falling, full curve, poor fit].
With `COC(=O)[C@@H](NC(=O)NCc1ccccc1Cl)C(C)C` the figure was 6.31 µM [falling, partial curve].
On to `COc1c(C)cccc1C(=O)Nc1cc(-c2nn3c(C)nnc3s2)ccc1C`, for which the AC50 was 2.51 µM [rising, full curve].
The same measure for `N#CCCn1c(SCC(=O)c2c[nH]c3ccccc23)nc2ccccc21`: 3.16 µM [rising, single point]; for `Cc1ccc(-c2cc(C(F)F)nc(NCC3CCCO3)n2)cc1` (stereo not drawn): 10 µM [rising, partial curve]; for `CCCCNc1nc2ccccc2n1CC(=O)N1CCc2ccccc2C1`: 0.1 µM [falling, partial curve].
With `CCCCn1c(SCC(=O)Nc2nnc(C)s2)nnc1-c1ccoc1C` the figure was 12.6 µM [rising, single point].
The same measure for `COc1cc(-c2nnc(COc3ccc4ccccc4c3)o2)cc(OC)c1OC`: 0.316 µM [rising, partial curve]; for `COCCn1c(=O)c(-c2ccc(OC)cc2)nc2cnc(OCc3ccccc3)nc21`: 12.6 µM [rising, partial curve]; for `O=C1c2cccc(O)c2C(=O)c2c(O)cccc21`: 10 µM [rising, full curve, poor fit].
For `CC1CCN(c2nc3ccccc3nc2C(C#N)C(=O)NC2CCCCC2)CC1` (stereo not drawn), the half-maximal activity concentration (AC50) is 10 µM [rising, partial curve].
The same measure for `COc1ccc(OC)c(NC(=O)Cc2coc3ccc(C)cc23)c1`: 0.00316 µM [falling, full curve, poor fit].
Regarding `O=C(Cc1ccc(Cl)cc1)Nc1ccc(-c2nnc(-c3ccco3)o2)cc1`, the AC50 is 6.31 µM [falling, partial curve].
`CC1Cc2cc(C3(O)C(=O)c4ccccc4C3=O)ccc2N1` (stereo not drawn): the concentration at half-maximal activity (AC50) was 20 µM [falling, single point].
With `CCc1nc2c(cnn2-c2ccc(Cl)cc2)c(=O)n1-c1ccc(OC)cc1` the figure was 0.631 µM [rising, full curve].

By AC50 is commonly meant the concentration giving half of the maximal activity seen.
